PubChem BioAssay AID504764, Drosophila RNAi Screening Center | 2011
In all, the deposit lists about 22,000 reagents; below is an unselected part of those with a known target gene and a result. Over the whole deposit, 403 (1.9%) were called active. 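Unnormalised raw counts per well; ratio z-scores behind the hit calls and whether each hit raises or lowers signal are not deposited.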 Reagent sequences are not shown. The record does not give: the amount of reagent.

- Test: 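Genes whose knock-down alters Notch-dependent transcription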 (primary screen)
- Cells: Drosophila Kc167 cells
- Reagents: long dsRNA against Drosophila genes
- Timing: about 5 days (4 days dsRNA, then 24 h after transfection)
- Challenge: transfection of constitutively active membrane-tethered Notch lacking the extracellular domain, read 24 h later
- Detection: 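Light from a Notch-responsive E(spl)m3 luciferase reporter under active Notch, with control-promoter and no-Notch reporter wells to normalise; raw counts from paired wells a and b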
- Reading the numbers: induced reporter light, run 1, well a and induced reporter light, run 1, well b: higher = more light from the Notch target reporter with active Notch; control promoter light, run 1, well a and control promoter light, run 1, well b: higher = more light from the viral control promoter (cell number, transfection, viability); uninduced reporter light, run 1, well a: higher = more light from the Notch target reporter without active Notch
- Rule for the call: 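Hit if the duplicate-averaged log2 ratio of induced to control-promoter light gives a plate-wise z beyond ±2, or induced to uninduced beyond ±1.8; weak-control or discordant-duplicate wells dropped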
- Meaning of the calls: active = modifier hit (raised or lowered Notch signal); inactive = not a hit

For eIF3h [DRSC01995], what was measured?
induced reporter light, run 1, well a: 20070; induced reporter light, run 1, well b: 21292; control promoter light, run 1, well a: 29635; control promoter light, run 1, well b: 25955; uninduced reporter light, run 1, well a: 2095; call: active

Which result is listed for FucTD [DRSC08634]?
induced reporter light, run 1, well a: 1.06e5; induced reporter light, run 1, well b: 93455; control promoter light, run 1, well a: 1.38e5; control promoter light, run 1, well b: 1.20e5; uninduced reporter light, run 1, well a: 3592; call: inactive

Which result is listed for ERp60 [DRSC07309]?
induced reporter light, run 1, well a: 1.74e5; induced reporter light, run 1, well b: 1.57e5; control promoter light, run 1, well a: 2.03e5; control promoter light, run 1, well b: 2.36e5; uninduced reporter light, run 1, well a: 16050; call: active

With CG18764 [DRSC15391], how do the results read?
induced reporter light, run 1, well a: 82545; induced reporter light, run 1, well b: 98920; control promoter light, run 1, well a: 68820; control promoter light, run 1, well b: 54755; uninduced reporter light, run 1, well a: 5205; call: inactive

What did the screen give for betaGlu [DRSC15419]?
induced reporter light, run 1, well a: 1.77e5; induced reporter light, run 1, well b: 1.87e5; control promoter light, run 1, well a: 2.40e5; control promoter light, run 1, well b: 2.51e5; uninduced reporter light, run 1, well a: 14620; call: inactive

What did the screen give for TTLL1B [DRSC08594]?
induced reporter light, run 1, well a: 1.91e5; induced reporter light, run 1, well b: 2.31e5; control promoter light, run 1, well a: 1.70e5; control promoter light, run 1, well b: 1.64e5; uninduced reporter light, run 1, well a: 11480; call: inactive

With Gr93a [DRSC14593], what was measured?
induced reporter light, run 1, well a: 1.98e5; induced reporter light, run 1, well b: 1.76e5; control promoter light, run 1, well a: 2.16e5; control promoter light, run 1, well b: 1.96e5; uninduced reporter light, run 1, well a: 13142; call: inactive

How did the screen score CG9609 [DRSC20199]?
induced reporter light, run 1, well a: 1.30e5; induced reporter light, run 1, well b: 1.23e5; control promoter light, run 1, well a: 1.11e5; control promoter light, run 1, well b: 94280; uninduced reporter light, run 1, well a: 11310; call: inactive

What did the screen give for CG5043 [DRSC02805]?
induced reporter light, run 1, well a: 1.10e5; induced reporter light, run 1, well b: 1.14e5; control promoter light, run 1, well a: 1.49e5; control promoter light, run 1, well b: 1.61e5; uninduced reporter light, run 1, well a: 9885; call: inactive

For CG14324 [DRSC14803], what was measured?
induced reporter light, run 1, well a: 2.42e5; induced reporter light, run 1, well b: 2.15e5; control promoter light, run 1, well a: 2.27e5; control promoter light, run 1, well b: 2.14e5; uninduced reporter light, run 1, well a: 20738; call: inactive

For CG11920 [DRSC14439], what does the deposit list?
induced reporter light, run 1, well a: 1.28e5; induced reporter light, run 1, well b: 1.31e5; control promoter light, run 1, well a: 1.69e5; control promoter light, run 1, well b: 1.84e5; uninduced reporter light, run 1, well a: 9745; call: inactive

For CG8746 [DRSC07257], what does the deposit list?
induced reporter light, run 1, well a: 1.22e5; induced reporter light, run 1, well b: 1.47e5; control promoter light, run 1, well a: 1.56e5; control promoter light, run 1, well b: 1.43e5; uninduced reporter light, run 1, well a: 13330; call: inactive

Just “control promoter light, run 1, well a” (2 entries from above):
eIF3h [DRSC01995]	29635
FucTD [DRSC08634]	1.38e5
